For this experiment, the target named is Utp10-TAP (S. cerevisiae) (UniProt P42945). The experiment can be described thus: co-IP.

Sequences of proteins named here, by UniProt entry; tags and fusion partners are left off.
UniProt P42945: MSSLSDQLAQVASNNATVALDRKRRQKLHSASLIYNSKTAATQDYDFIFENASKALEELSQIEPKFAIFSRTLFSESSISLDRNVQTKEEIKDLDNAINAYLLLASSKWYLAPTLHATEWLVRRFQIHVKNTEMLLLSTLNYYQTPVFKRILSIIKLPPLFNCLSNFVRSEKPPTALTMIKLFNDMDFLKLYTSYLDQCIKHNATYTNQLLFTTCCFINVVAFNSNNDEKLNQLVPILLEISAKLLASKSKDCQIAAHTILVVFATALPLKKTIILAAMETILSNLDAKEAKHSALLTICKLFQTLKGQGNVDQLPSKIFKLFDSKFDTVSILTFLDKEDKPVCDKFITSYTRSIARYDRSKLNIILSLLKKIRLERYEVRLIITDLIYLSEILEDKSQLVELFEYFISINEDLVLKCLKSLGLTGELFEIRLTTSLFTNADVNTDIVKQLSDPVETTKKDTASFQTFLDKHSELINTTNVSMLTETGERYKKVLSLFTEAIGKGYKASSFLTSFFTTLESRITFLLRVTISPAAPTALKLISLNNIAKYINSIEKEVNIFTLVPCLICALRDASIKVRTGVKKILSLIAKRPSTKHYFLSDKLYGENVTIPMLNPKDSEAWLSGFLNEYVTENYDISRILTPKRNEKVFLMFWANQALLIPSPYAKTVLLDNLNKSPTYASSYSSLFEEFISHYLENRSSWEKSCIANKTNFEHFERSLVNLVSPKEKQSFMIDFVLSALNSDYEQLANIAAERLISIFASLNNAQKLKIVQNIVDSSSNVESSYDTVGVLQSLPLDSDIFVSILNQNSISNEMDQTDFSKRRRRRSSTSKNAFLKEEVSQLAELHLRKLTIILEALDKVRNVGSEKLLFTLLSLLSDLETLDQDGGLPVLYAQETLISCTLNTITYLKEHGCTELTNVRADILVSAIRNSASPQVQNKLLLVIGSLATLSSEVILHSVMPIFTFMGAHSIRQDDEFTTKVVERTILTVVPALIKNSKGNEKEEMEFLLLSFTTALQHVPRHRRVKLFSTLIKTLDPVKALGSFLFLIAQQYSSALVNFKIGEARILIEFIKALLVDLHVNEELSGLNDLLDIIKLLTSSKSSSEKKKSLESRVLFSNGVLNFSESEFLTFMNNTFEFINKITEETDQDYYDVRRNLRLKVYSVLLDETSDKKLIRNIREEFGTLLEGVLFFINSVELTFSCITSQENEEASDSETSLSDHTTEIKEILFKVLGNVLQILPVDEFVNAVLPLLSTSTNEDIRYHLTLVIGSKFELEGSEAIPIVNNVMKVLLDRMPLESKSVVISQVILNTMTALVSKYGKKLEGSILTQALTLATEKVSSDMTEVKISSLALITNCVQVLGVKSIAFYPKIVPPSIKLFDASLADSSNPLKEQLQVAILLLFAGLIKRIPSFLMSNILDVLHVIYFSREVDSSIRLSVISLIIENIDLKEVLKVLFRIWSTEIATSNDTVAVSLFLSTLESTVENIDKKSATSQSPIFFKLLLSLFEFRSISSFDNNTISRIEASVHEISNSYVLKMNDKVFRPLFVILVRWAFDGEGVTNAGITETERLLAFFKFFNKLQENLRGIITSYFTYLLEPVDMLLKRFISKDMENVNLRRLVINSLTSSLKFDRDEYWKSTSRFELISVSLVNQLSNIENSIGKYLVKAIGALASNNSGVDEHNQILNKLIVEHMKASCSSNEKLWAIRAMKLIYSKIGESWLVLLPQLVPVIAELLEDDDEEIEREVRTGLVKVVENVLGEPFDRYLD
UniProt Q05022: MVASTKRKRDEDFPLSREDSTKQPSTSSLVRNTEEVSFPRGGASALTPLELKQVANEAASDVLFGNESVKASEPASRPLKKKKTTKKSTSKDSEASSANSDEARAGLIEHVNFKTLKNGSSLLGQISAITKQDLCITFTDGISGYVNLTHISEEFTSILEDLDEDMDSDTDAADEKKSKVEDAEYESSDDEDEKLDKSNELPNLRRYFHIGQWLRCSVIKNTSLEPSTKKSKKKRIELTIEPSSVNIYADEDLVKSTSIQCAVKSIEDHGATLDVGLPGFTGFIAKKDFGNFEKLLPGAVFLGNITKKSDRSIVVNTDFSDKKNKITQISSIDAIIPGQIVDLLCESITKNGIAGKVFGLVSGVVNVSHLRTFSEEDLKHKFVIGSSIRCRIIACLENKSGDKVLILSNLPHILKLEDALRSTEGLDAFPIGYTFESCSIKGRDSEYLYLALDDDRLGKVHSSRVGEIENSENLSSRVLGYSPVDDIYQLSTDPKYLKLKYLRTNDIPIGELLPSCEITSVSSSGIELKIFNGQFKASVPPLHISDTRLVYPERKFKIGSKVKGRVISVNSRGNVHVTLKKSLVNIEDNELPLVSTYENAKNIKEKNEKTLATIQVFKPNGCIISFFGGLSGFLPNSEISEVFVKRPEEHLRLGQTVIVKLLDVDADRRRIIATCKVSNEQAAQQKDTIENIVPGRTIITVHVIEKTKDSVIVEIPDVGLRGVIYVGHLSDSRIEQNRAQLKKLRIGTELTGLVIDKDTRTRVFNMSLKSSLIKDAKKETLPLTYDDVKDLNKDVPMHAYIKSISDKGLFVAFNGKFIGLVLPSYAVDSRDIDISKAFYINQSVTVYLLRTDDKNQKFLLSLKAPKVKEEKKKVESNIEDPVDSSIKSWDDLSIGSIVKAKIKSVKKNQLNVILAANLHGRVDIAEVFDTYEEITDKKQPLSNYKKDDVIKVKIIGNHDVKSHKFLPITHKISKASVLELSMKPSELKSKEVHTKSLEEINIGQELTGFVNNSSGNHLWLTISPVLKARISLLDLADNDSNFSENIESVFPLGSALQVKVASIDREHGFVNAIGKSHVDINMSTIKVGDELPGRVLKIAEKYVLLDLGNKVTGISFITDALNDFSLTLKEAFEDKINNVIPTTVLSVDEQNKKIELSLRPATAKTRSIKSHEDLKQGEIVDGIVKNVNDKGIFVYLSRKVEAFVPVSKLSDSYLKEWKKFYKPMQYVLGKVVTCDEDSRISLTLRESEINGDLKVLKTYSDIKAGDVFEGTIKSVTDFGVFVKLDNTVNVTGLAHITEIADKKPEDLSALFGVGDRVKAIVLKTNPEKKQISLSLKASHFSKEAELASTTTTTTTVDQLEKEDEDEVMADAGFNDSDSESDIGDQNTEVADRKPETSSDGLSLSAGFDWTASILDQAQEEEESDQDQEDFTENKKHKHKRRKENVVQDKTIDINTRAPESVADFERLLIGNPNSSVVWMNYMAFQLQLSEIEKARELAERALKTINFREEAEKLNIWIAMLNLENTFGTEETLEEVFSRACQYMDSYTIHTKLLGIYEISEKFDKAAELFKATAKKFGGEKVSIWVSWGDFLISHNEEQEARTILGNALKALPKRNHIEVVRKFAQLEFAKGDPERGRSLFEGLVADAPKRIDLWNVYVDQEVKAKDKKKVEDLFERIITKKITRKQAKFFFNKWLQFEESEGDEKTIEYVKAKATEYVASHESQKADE

No constants are given. Whether binding was seen depends on the method and setting. Binding seen in cells or lysates may run through a third protein. Some entries that bind do so weakly or less than the wild type.

Regarding “Rrp5 (in yeast cells) (from UniProt Q05022 1-1729)”, the binding entry was “binds”.

The values above are taken from publication doi:10.1101/2021.09.06.459192.
